Data from the supplement of paper PMC10338343.
± gives the standard deviation. The entries are a selection whose mix differs from that of the whole data set. The uncertainty is large for many entries. Some of the results follow.

Columns and labels:
[1] = test system: MILI (PIWIL2) piRISC loaded with L1MC piRNA (26 nt); experiment: pre-steady-state target cleavage rate (min^-1); higher = faster piRNA-guided slicing of the target; conditions: guide: L1MC piRNA 5'p-UAACUAAAUACUAUGCAAGCUGUAGG
Method in brief: (§1)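 In HEPES–potassium acetate buffer at 33 °C, […] transcribed, DNA-blocked target RNA library was mixed with 1 nM active affinity-purified piRISC carrying one synthetic guide, with or without 500 nM GTSF1 partner protein, for 0–8 or 0–960 min. Uncleaved targets were sequenced and normalised to depth and to weakly complementary targets; three trials were pooled and k3 was capped at 0.0001 min^-1. The pre-steady-state cleavage rate followed from a burst-and-steady-state fit.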

[2] = test system: MIWI (PIWIL1) piRISC loaded with L1MC piRNA (30 nt); experiment: as above; conditions: guide: L1MC piRNA 5'p-UAACUAAAUACUAUGCAAGCUGUAGGUCCU
Method in brief: as §1

[3] = test system: EfPiwi piRISC loaded with L1MC piRNA (26 nt); experiment: pre-steady-state target cleavage rate (min^-1); guide: L1MC piRNA 5'p-UAACUAAAUACUAUGCAAGCUGUAGG; MIWI and MILI are mouse PIWI proteins and EfPiwi is from a freshwater sponge; tags in brackets are library labels; higher = faster piRNA-guided slicing of the target
Method in brief: as §1

[4] = auxiliary factor: 500 nM mouse GTSF1
[5] = auxiliary factor: none (no GTSF1)
[6] = auxiliary factor: 500 nM Ephydatia muelleri Gtsf1
[7] = auxiliary factor: none (no Gtsf1)

| Sequence | pre-steady-state target cleavage rate [1, 4] | pre-steady-state target cleavage rate [1, 5] | pre-steady-state target cleavage rate [2, 5] | pre-steady-state target cleavage rate [3, 6] | pre-steady-state target cleavage rate [3, 7] | pre-steady-state target cleavage rate [2, 4] |
| --- | --- | --- | --- | --- | --- | --- |
| UCCUGGAUGUCGAAGCAUAGUUAUUAGUUA | 0.00245 ± 0.0048 | 0.00217 ± 0.0024 | 0.0006 ± 0.0088 | 0.000805 ± 0.0086 | – | – |
| UCCUGGAUGUCCUUGCAUACUUUUUAGUUA | 0.00626 ± 0.004 | 0.0024 ± 0.0022 | 0.00172 ± 0.005 | 0.00098 ± 0.0067 | – | – |
| UCCUGGAUGUGCUUGCAUAGUAUUUAUUA | 0.00911 ± 0.0051 | 0.00103 ± 0.0067 | 0.0025 ± 0.0028 | 0.00271 ± 0.0022 | – | – |
| UCCUGGAUGUCCUUGCAUACGUAUUUAGUUA | 0.00229 ± 0.0058 | 0.00158 ± 0.0047 | 0.00106 ± 0.0078 | 0.00141 ± 0.004 | – | – |
| UCCUGGAUGAGCUUGAUAGUAUUUAGUUA | 0.017 ± 0.0068 | 0.00442 ± 0.0028 | 0.0024 ± 0.003 | 0.00185 ± 0.0049 | – | – |
| UCCUGGAUCAGCUUGCAUAGUAUUAACAAA | 0.0885 ± 0.022 | 0.000824 ± 0.0068 | 0.00273 ± 0.0046 | 0.00119 ± 0.0037 | – | – |
| UCCUGGUACACCUUGCAUAGUAUUUACAAA | 0.046 ± 0.018 | 0.00145 ± 0.0056 | 0.00274 ± 0.0032 | 0.00118 ± 0.0037 | – | – |
| UCCUGGUACAGCUUGGUAAGUAUUUAGUAA | 0.18 ± 0.034 | 0.00367 ± 0.0027 | 0.00124 ± 0.0057 | 0.000243 ± 0.024 | – | – |
| UCCUGGAUGUCGUUGCAUUGUAUUUAGUAA | 0.00216 ± 0.0053 | 0.000728 ± 0.0084 | 0.000255 ± 0.026 | 0.000211 ± 0.018 | – | – |
| UCCUGGAUGUCGAUGCAUAGGUAUUUAGUUA | 0.0035 ± 0.0037 | 0.00161 ± 0.0059 | 0.000991 ± 0.01 | 0.00161 ± 0.008 | – | – |
| UCCUCCUACAGCUUGACAUAGUAUUUAGUUA | 0.267 ± 0.018 | 0.00554 ± 0.0024 | 0.00235 ± 0.0029 | 0.016 ± 0.0056 | – | – |
| UCCUCCUACACGAUGCAUAGUAUUUAGAAA | 0.102 ± 0.021 | 0.00138 ± 0.0048 | 0.000819 ± 0.0065 | 0.00369 ± 0.0021 | – | – |
| UCCUCCUUCAGCUUGCAUAGUAUUUUCAAA | 0.115 ± 0.022 | 0.00147 ± 0.004 | 0.00173 ± 0.0034 | 0.00259 ± 0.0024 | – | – |
| UCCUGGAUGUCGAACCAAAGUAUUUAGUUA | 0.000588 ± 0.011 | 0.000186 ± 0.0098 | 0.000148 ± 0.02 | < 0.0001 | – | – |
| UCCUCCUACAGCUUCCAAAGUAUUUAGUUA | 0.13 ± 0.019 | 0.0037 ± 0.0022 | 0.0016 ± 0.0019 | – | 0.00059 ± 0.01 | – |
| UCCUGGAUGUCGUUGCAUAGUAAUUACUUA | 0.000116 ± 0.024 | 0.000274 ± 0.025 | 0.000471 ± 0.016 | 0.00019 ± 0.014 | – | – |
| UCCUGGAUGUCGAACCAUAGUAUUUCAGUUA | 0.000515 ± 0.0098 | 0.000227 ± 0.021 | – | – | < 0.0001 | 0.000353 ± 0.015 |
| UCCUGGAUGUCGAUGCCAUAGUAUUUAGUUA | 0.00491 ± 0.0034 | 0.000595 ± 0.011 | 0.00058 ± 0.013 | 0.00138 ± 0.0074 | – | – |
| UCCUGGAUGUCGUUGCAUAGUUUUUAGAUA | 0.000821 ± 0.013 | 0.00134 ± 0.0041 | 0.000685 ± 0.0086 | 0.000214 ± 0.015 | – | – |
| UCCUGGAUGUCGUUGCAAUAGUAUUUAGUUA | 0.00262 ± 0.0049 | 0.00188 ± 0.0035 | 0.00119 ± 0.0053 | – | 0.000287 ± 0.026 | – |
| UCCUGGAACAGCUUGCAUACGUAUUUAGUUA | 0.00209 ± 0.0063 | 0.0014 ± 0.0046 | 0.000701 ± 0.0089 | 0.0016 ± 0.003 | – | – |

Fetched one by one from above (3):

| Sequence | pre-steady-state target cleavage rate [1, 4] | pre-steady-state target cleavage rate [1, 5] | pre-steady-state target cleavage rate [2, 5] | pre-steady-state target cleavage rate [3, 6] | pre-steady-state target cleavage rate [3, 7] | pre-steady-state target cleavage rate [2, 4] |
| --- | --- | --- | --- | --- | --- | --- |
| UCCUGGAUGUCGUUGCAUUGUAUUUAGUAA | 0.00216 ± 0.0053 | 0.000728 ± 0.0084 | 0.000255 ± 0.026 | 0.000211 ± 0.018 | – | – |
| UCCUGGAUGUCGAACCAAAGUAUUUAGUUA | 0.000588 ± 0.011 | 0.000186 ± 0.0098 | 0.000148 ± 0.02 | < 0.0001 | – | – |
| UCCUGGAUCAGCUUGCAUAGUAUUAACAAA | 0.0885 ± 0.022 | 0.000824 ± 0.0068 | 0.00273 ± 0.0046 | 0.00119 ± 0.0037 | – | – |

(continued)

| Sequence | pre-steady-state target cleavage rate [1, 4] | pre-steady-state target cleavage rate [1, 5] | pre-steady-state target cleavage rate [2, 5] | pre-steady-state target cleavage rate [3, 6] | pre-steady-state target cleavage rate [3, 7] | pre-steady-state target cleavage rate [2, 4] |
| --- | --- | --- | --- | --- | --- | --- |
| UCCUGGAUGUCCAUGCAUAGAAUUUAGUUA | 0.0111 ± 0.0048 | 0.00219 ± 0.0025 | 0.000945 ± 0.0065 | 0.000293 ± 0.014 | – | – |
| UCCUGGAUGAGCUUCGUUAGUAUUUAGUAA | 0.000575 ± 0.013 | 0.00034 ± 0.014 | – | 0.000158 ± 0.025 | – | 0.000309 ± 0.029 |
| UCCUGGAUGUGGUUCCAUAGUAUUUAGUUA | 0.00523 ± 0.0059 | 0.000696 ± 0.012 | – | 0.000469 ± 0.0092 | – | 0.00165 ± 0.01 |
| UCCUGGUACAGCUUGCAUUAGUAUUUAGUUA | 0.017 ± 0.0074 | 0.00174 ± 0.006 | 0.00109 ± 0.0078 | 0.00177 ± 0.0057 | – | – |
| UCCUGGAUGUCGAAGCAUAGUAAAUAGUUA | 0.00319 ± 0.0038 | 0.00132 ± 0.0047 | 0.000857 ± 0.0078 | 0.000218 ± 0.022 | – | – |
| UCCUGGAUGUCGUUGCAUUGUAAUUAGUUA | 0.000237 ± 0.05 | 0.000339 ± 0.017 | 0.000206 ± 0.029 | 0.000125 ± 0.046 | – | – |
| UCCUGGAUGUCGAAGCAUAGUAUUAUCUUA | 0.00061 ± 0.013 | < 0.0001 | 0.000121 ± 0.019 | 0.000251 ± 0.013 | – | – |
| UCCUCCUACUCCUUGCAUAGUAUUUUCAAA | 0.0534 ± 0.015 | 0.0011 ± 0.0037 | 0.00144 ± 0.0023 | 0.00236 ± 0.0035 | – | – |
| UCCUGGUACACCUUGCAUAGUAUUUUCAAA | 0.0291 ± 0.016 | 0.00122 ± 0.0069 | 0.00201 ± 0.0053 | 0.000912 ± 0.0074 | – | – |
| UCCUGGAUGUCGAUGCAUAGUAUUAAGUUA | 0.122 ± 0.017 | 0.0035 ± 0.0025 | 0.000813 ± 0.0067 | 0.000607 ± 0.0056 | – | – |
| UCCUGGAUGUGCUUGCAUAGAUAAAUCAAA [g11:g20:cont:t1A] | 0.000565 ± 0.018 | 0.000352 ± 0.018 | 0.00036 ± 0.013 | 0.000298 ± 0.014 | – | – |
| UCCUCCUAGUGCUUGCAUAGUAUUUUCAAA | 0.0158 ± 0.0057 | 0.00108 ± 0.0043 | 0.00151 ± 0.0024 | 0.00233 ± 0.003 | – | – |
| UCCUGGAUGUCGAUGCAUAGUAUUAUAGUUA | 0.123 ± 0.021 | 0.00538 ± 0.0026 | – | 0.00137 ± 0.0056 | – | 0.00214 ± 0.0056 |
| UCCUGGAUGUCGUUGCAUUCUAUUUAGUUA | 0.0011 ± 0.0092 | 0.000388 ± 0.014 | – | 0.000365 ± 0.0082 | – | 0.000585 ± 0.016 |
| UCCUCCAACAGCUUGCAUAGUAUUUAGUUA | 0.329 ± 0.017 | 0.00861 ± 0.0027 | – | 0.113 ± 0.032 | – | 1.37 ± 0.041 |
| UCCUGGUACAGCUUGCAUAGAUAUUAGUAA | 0.00377 ± 0.0041 | 0.00133 ± 0.0049 | 0.000918 ± 0.0062 | 0.000327 ± 0.027 | – | – |
| UCCUGGAUGUCGAAGCAUAGCAUUUAGUUA | 0.00187 ± 0.006 | 0.000803 ± 0.006 | 0.000748 ± 0.0083 | 0.000335 ± 0.01 | – | – |
| UCCUGGAUGUGGUUGCAAAGUAUUUAGUUA | 0.0262 ± 0.0077 | 0.00983 ± 0.0026 | 0.00333 ± 0.0034 | 0.0018 ± 0.0051 | – | – |
| UCCUGGAUCAGCUUGCAUAGUAUAAAGUAA | 0.11 ± 0.024 | 0.00205 ± 0.0038 | 0.00359 ± 0.0037 | 0.00455 ± 0.0038 | – | – |
| UCCUGGAUGUCCUUGCAUUCUAUUUAGUUA | 0.00856 ± 0.0043 | 0.00132 ± 0.0052 | 0.000771 ± 0.0063 | 0.000158 ± 0.021 | – | – |
| UCCUGGAUGUCGAACCUAGUAUUUAGUUA | 0.000458 ± 0.011 | 0.000146 ± 0.012 | 0.000194 ± 0.0097 | 0.000258 ± 0.013 | – | – |
